Source: paper PMC5731996

Amino acid sequences for entries named in this document (tags omitted). Residues count along the entry.
UniProt P16422, 24-314: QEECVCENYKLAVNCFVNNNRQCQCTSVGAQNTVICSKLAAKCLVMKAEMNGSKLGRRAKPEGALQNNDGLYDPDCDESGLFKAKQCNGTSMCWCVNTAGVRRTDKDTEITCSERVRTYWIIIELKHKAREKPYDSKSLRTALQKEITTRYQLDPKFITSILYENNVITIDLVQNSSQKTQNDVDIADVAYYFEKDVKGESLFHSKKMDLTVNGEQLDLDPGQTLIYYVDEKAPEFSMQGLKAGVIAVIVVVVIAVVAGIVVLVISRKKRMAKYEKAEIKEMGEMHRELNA

Target: EpCAM on KATO III cells (UniProt P16422)
Experiment: flow cytometry on cells
Conditions: no fluorescent signal on KATO III; PBS, 5 mM MgCl2; aptamer folded at 95 C then ice; 1 h at 37 C; Kd: 10 nM EpCAM, 10-400 nM Ep1; pH not stated; protein on the cell surface; label: Cy5.5; single-stranded DNA

## CCCTACCTAGGTTCGAATGACCGAGTAACCCACCACCGCAGACCTGCCCAACATACGCTATCCTTAAGCC [Nonspecific sequence (NS), Cy5.5-labeled]
  binding result: no binding

Construct, isoform or probe ends are uncertain for at least one entry. Where cells or extracts were used, other partners may take part. Negatives hold for the conditions tested.
